{"sequences": {"note": "By UniProt entry, the sequences of proteins in these tests, tags left out.", "UniProt Q14457": "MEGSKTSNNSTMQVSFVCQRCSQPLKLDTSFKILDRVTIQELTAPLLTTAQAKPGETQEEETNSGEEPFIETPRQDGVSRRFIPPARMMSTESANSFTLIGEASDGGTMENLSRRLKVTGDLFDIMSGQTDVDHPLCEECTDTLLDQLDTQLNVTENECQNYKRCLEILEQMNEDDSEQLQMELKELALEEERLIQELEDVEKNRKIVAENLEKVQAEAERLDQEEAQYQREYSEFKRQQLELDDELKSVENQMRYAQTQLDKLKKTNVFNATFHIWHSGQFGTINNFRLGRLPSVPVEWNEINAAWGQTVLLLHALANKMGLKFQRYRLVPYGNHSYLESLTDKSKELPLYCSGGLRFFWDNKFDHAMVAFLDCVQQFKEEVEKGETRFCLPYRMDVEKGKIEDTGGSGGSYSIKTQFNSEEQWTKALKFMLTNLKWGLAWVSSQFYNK", "UniProt Q00987": "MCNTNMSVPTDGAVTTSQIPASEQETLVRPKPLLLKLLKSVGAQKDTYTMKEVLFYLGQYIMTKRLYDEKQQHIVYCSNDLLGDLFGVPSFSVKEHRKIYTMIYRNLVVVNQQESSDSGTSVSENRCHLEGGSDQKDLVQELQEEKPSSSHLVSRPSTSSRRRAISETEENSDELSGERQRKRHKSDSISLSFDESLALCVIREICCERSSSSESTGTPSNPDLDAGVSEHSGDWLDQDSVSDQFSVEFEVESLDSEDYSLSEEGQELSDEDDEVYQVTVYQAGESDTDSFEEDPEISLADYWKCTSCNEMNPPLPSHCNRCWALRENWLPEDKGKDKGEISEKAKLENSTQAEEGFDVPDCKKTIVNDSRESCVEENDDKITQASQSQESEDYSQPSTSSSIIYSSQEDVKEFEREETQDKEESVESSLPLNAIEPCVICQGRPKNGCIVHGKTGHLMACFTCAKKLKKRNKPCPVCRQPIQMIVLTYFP"}, "source": "paper PMC9563141", "molecules": {"B1": {"name": "MDMX (protein, UniProt O15151 1-490)", "chain": "MTSFSTSAQCSTSDSACRISPGQINQVRPKLPLLKILHAAGAQGEMFTVKEVMHYLGQYIMVKQLYDQQEQHMVYCGGDLLGELLGRQSFSVKDPSPLYDMLRKNLVTLATATTDAAQTLALAQDHSMDIPSQDQLKQSAEESSTSRKRTTEDDIPTLPTSEHKCIHSREDEDLIENLAQDETSRLDLGFEEWDVAGLPWWFLGNLRSNYTPRSNGSTDLQTNQDVGTAIVSDTTDDLWFLNESVSEQLGVGIKVEAADTEQTSEEVGKVSDKKVIEVGKNDDLEDSKSLSDDTDVEVTSEDEWQCTECKKFNSPSKRYCFRCWALRKDWYSDCSKLTHSLSTSDITAIPEKENEGNDVPDCRRTISAPVVRPKDAYIKKENSKLFDPCNSVEFLDLAHSSESQETISSMGEQLDNLSEQRTDTENMEDCQNLLKPCSLCEKRPRDGNIIHGRTGHLVTCFHCARRLKKAGASCPICKKEIQLVIKVFIA"}, "B2": {"name": "retinoblastoma protein (RB) (protein, UniProt P06400 1-928)", "chain": "MPPKTPRKTAATAAAAAAEPPAPPPPPPPEEDPEQDSGPEDLPLVRLEFEETEEPDFTALCQKLKIPDHVRERAWLTWEKVSSVDGVLGGYIQKKKELWGICIFIAAVDLDEMSFTFTELQKNIEISVHKFFNLLKEIDTSTKVDNAMSRLLKKYDVLFALFSKLERTCELIYLTQPSSSISTEINSALVLKVSWITFLLAKGEVLQMEDDLVISFQLMLCVLDYFIKLSPPMLLKEPYKTAVIPINGSPRTPRRGQNRSARIAKQLENDTRIIEVLCKEHECNIDEVKNVYFKNFIPFMNSLGLVTSNGLPEVENLSKRYEEIYLKNKDLDARLFLDHDKTLQTDSIDSFETQRTPRKSNLDEEVNVIPPHTPVRTVMNTIQQLMMILNSASDQPSENLISYFNNCTVNPKESILKRVKDIGYIFKEKFAKAVGQGCVEIGSQRYKLGVRLYYRVMESMLKSEEERLSIQNFSKLLNDNIFHMSLLACALEVVMATYSRSTSQNLDSGTDLSFPWILNVLNLKAFDFYKVIESFIKAEGNLTREMIKHLERCEHRIMESLAWLSDSPLFDLIKQSKDREGPTDHLESACPLNLPLQNNHTAADMYLSPVRSPKKKGSTTRVNSTANAETQATSAFQTQKPLKSTSLSLFYKKVYRLAYLRLNTLCERLLSEHPELEHIIWTLFQHTLQNEYELMRDRHLDQIMMCSMYGICKVKNIDLKFKIIVTAYKDLPHAVQETFKRVLIKEEEYDSIIVFYNSVFMQRLKTNILQYASTRPPTLSPIPHIPRSPYKFPSSPLRIPGGNIYISPLKSPYKISEGLPTPTKMTPRSRILVSIGESFGTSEKFQKINQMVCNSDRVLKRSAEGSNPPKPLKKLRFDIEGSDEADGSKHLPGESKFQQKLAEMTSTRTRMQKQKMNDSMDTSNKEEK"}, "B3": {"name": "MDMX (transfected) (protein, UniProt O15151 1-490)", "chain": "MTSFSTSAQCSTSDSACRISPGQINQVRPKLPLLKILHAAGAQGEMFTVKEVMHYLGQYIMVKQLYDQQEQHMVYCGGDLLGELLGRQSFSVKDPSPLYDMLRKNLVTLATATTDAAQTLALAQDHSMDIPSQDQLKQSAEESSTSRKRTTEDDIPTLPTSEHKCIHSREDEDLIENLAQDETSRLDLGFEEWDVAGLPWWFLGNLRSNYTPRSNGSTDLQTNQDVGTAIVSDTTDDLWFLNESVSEQLGVGIKVEAADTEQTSEEVGKVSDKKVIEVGKNDDLEDSKSLSDDTDVEVTSEDEWQCTECKKFNSPSKRYCFRCWALRKDWYSDCSKLTHSLSTSDITAIPEKENEGNDVPDCRRTISAPVVRPKDAYIKKENSKLFDPCNSVEFLDLAHSSESQETISSMGEQLDNLSEQRTDTENMEDCQNLLKPCSLCEKRPRDGNIIHGRTGHLVTCFHCARRLKKAGASCPICKKEIQLVIKVFIA"}}, "key": {"Flag-Beclin 1 (FL)": {"target": "Flag-Beclin 1 (FL) (UniProt Q14457)", "assay": "co-IP; 293FT cells co-transfected with Flag-Beclin 1 (FL) or a Beclin 1 deletion construct and MDM2, MDMX or RB; total cell lysates, IP-western"}, "[1]": {"target": "Beclin 1 (human (endogenous in HCT116)) (UniProt Q14457)", "assay": "co-IP; endogenous proteins of HCT116 or HCT116 p53-/- cells; precipitated with an antibody specific for Beclin 1 or for MDMX, IgG control; western blot"}, "[2]": {"target": "T1, MDMX (human (endogenous in HCT116)) (UniProt O15151)", "T1 sequence": "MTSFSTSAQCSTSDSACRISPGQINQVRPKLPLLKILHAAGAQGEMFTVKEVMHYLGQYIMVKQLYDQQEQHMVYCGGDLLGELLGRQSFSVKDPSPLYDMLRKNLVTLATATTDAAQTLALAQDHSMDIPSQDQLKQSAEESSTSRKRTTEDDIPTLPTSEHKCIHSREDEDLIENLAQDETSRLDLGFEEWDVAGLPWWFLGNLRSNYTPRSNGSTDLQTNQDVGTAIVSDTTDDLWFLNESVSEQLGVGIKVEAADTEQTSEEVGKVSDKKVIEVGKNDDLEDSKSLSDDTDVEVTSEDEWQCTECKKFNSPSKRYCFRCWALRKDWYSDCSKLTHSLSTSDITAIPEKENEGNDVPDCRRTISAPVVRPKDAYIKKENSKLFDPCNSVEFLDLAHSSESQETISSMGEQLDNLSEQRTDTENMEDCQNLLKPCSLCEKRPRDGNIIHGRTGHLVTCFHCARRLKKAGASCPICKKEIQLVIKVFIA", "assay": "co-IP; endogenous proteins of HCT116 or HCT116 p53-/- cells; precipitated with an antibody specific for Beclin 1 or for MDMX, IgG control; western blot"}}, "note": "These are yes or no findings as the source states them, for the method shown. Binding seen in cells or lysates may run through a third protein. Some binding calls cover weakened binding; strength is not graded here.", "data": [{"molecule": "MDM2 (transfected) (from UniProt Q00987 1-491)", "values": [{"measurement": "binding", "setting": "Flag-Beclin 1 (FL)", "value": "binds"}]}, {"molecule": "MDM2 (the double mouse minute 2 homolog) (from UniProt Q00987 1-491)", "values": [{"measurement": "binding", "setting": "[1]", "value": "binds"}]}, {"molecule": "B1", "values": [{"measurement": "binding", "setting": "[1]", "value": "binds"}]}, {"molecule": "B2", "values": [{"measurement": "binding", "setting": "[2]", "value": "binds"}]}, {"molecule": "B3", "values": [{"measurement": "binding", "setting": "Flag-Beclin 1 (FL)", "value": "binds"}]}]}
